Test results from publication PMC11647625.

What was measured:
[1] = target: GST fused with the SH2 domain of the R486K mutant of 3BP2; assay: pull-down; 20 ug GST fusion protein bound to GSH beads incubated with precleared BMDC lysates (without or with curdlan stimulation for 30 min) for 2 h at 4 °C; washed four times with lysis buffer (50 mM Tris-HCl pH 7.4, 150 mM NaCl, 1% Triton-X 100); immunoblotting; only the target purified
[2] = target: glutathione S-transferase (GST) fused with the SH2 domain of WT 3BP2; assay: as above

B1: hematopoietic cell-specific Lyn substrate 1 (protein, UniProt P49710 1-486)
chain: MWKSVVGHDVSVSVETQGDDWDTDPDFVNDISEKEQRWGAKTIEGSGRTEHINIHQLRNKVSEEHDILKKKELESGPKASHGYGGRFGVERDRMDKSAVGHEYVADVEKHSSQTDAARGFGGKYGVERDRADKSAVGFDYKGEVEKHASQKDYSHGFGGRYGVEKDKRDKAALGYDYKGETEKHESQRDYAKGFGGQYGIQKDRVDKSAVGFNEMEAPTTAYKKTTPIEAASSGARGLKAKFESLAEEKRKREEEEKAQQMARQQQERKAVVKMSREVQQPSMPVEEPAAPAQLPKKISSEVWPPAESHLPPESQPVRSRREYPVPSLPTRQSPLQNHLEDNEEPPALPPRTPEGLQVVEEPVYEAAPELEPEPEPDYEPEPETEPDYEDVGELDRQDEDAEGDYEDVLEPEDTPSLSYQAGPSAGAGGAGISAIALYDYQGEGSDELSFDPDDIITDIEMVDEGWWRGQCRGHFGLFPANYVKLL
In the case of B1, the binding [1] is reported as “no binding” and the binding [2] is reported as “binds”.

Results are given in words; binding and its absence hold for the method and conditions named. In cells and extracts the contact can be indirect. For some assays here: Binding calls can cover weak binding; strength is not graded here.
